From patent US9642921B2, “Cancer combination therapy and recombinant vectors” (Tocagen Inc., priority 2012, dated 2017)
At least one compound was matched to its structure with a doubt left.

How the values were obtained:
[1] = system: five glioma cell lines (U-87MG, LN-18, LN-229, 8-MG-BA, Tu-2449); test: In vitro RRV-GFP spread (FACS), panel of glioma cells; format: cell-based, human and mouse; conditions: TMZ before or concomitantly with RRV-GFP infection; regardless of the cells' sensitivity to TMZ
Method: (§1) Two different TMZ schedules were tested. To test the effect of preincubation with TMZ, cells were seeded at a density of 1×10^5 cells per well on six-well plates. After 24 h, different concentrations of TMZ were added to the cells. The next day, cells were infected with RRV-GFP vector at a multiplicity of infection of 0.1. To test the effect of concomitant TMZ, cells were seeded at a density of 1×10^5 cells per well on six-well plates. After 48 h, cells were infected with RRV-GFP vector at a multiplicity of infection of 0.1 in the presence of different concentrations of TMZ. The following day, cells were transferred to T25 flasks keeping the indicated TMZ concentration. Cells were analyzed three times a week by enhanced green fluorescent protein fluorescence-activated cell sorting analysis for virus spread, maintaining the indicated TMZ concentration during the entire experiment.
(§2) To test any possible effect of TMZ on the spread of Toca 511, the same panel of glioma cells was treated with different concentrations of TMZ depending on the TMZ sensitivity of the cells determined in the clonogenic assay in FIG. 1b. In addition, vector with the same backbone as Toca 511 but encoding a GFP transgene (RRV-GFP) was used to assess vector spread by fluorescence-activated cell sorting analysis. Two TMZ treatment schedules were tested. […]

Tu-2449 = test: In vitro RRV-GFP spread (FACS); format: cell-based, mouse
Method: as §1, §2

[2] = system: Tu-2449 cells (naive and Toca 511-transduced); test: In vitro 5-FC sensitivity assay (XTT viability); format: cell-based, mouse
Method: (§3) Tu-2449 and U-87MG cells were infected with ˜1×10^4 transducing units (TU) ml^−1 of Toca 511 in the presence of polybrene (8 mgml^−1). Cells were passaged 2-3 times a week for 17 days. […] Cells were seeded on day 0 at a concentration of 1×10^3 cells per well of a 96-well plate in […] of culture medium (Dulbecco's modified Eagle's mediump10% fetal calf serum+gentamicin (17 mg per 100 ml)). On day 1, […] of culture medium containing 5-FC (range 0-1000 mgml^−1), TMZ (range 0-100 mgml^−1) or both drugs (5-FC (range 0-1.6 mgml^−1) and TMZ (2 mgml^−1)) was added to the cells. Viability was measured on day 6 using Cell Proliferation Kit II (XTT) (Roche, Indianapolis, Ind., USA) as recommended by the manufacturer.
(§4) Two glioma lines U-87MG (TMZ-sensitive) and Tu-2449 (TMZ-resistant) were chosen to examine the compatibility of TMZ and Toca 511p5-FC treatment in previously infected cells. These two cell lines were cultured as either non-transduced control or 100% Toca 511-transduced cells. Sensitivity to 5-FC was examined by measuring cell viability after culture in increasing amounts of 5-FC. […] In addition, cell viability was examined in the nontransduced and transduced cell lines treated with increasing amounts of TMZ.

LN-18 = test: In vitro RRV-GFP spread (FACS); format: cell-based, human; conditions: TMZ up to 20 mgml^−1 added 24 h before RRV-GFP
Method: as §1
(§5) To test any possible effect of TMZ on the spread of Toca 511, the same panel of glioma cells was treated with different concentrations of TMZ depending on the TMZ sensitivity of the cells determined in the clonogenic assay in FIG. 1b. In addition, vector with the same backbone as Toca 511 but encoding a GFP transgene (RRV-GFP) was used to assess vector spread by fluorescence-activated cell sorting analysis. Two TMZ treatment schedules were tested. The first schedule tested treatment with varying concentrations of TMZ before and during the time of vector infection, and the second schedule tested treatment with varying concentrations of TMZ at the same time as the addition of vector. In the first schedule, glioma cells were incubated with different concentrations of TMZ 24 h before the addition of RRVGFP at a multiplicity of infection of 0.1. […] There was an initial lag or decrease in GFP positivity at earlier time points (FIG. 2a). […] In the second schedule, when TMZ and RRV-GFP were added to the glioma cells concomitantly, the same trend was observed; after an initial lag, cells reached nearly 100% GFP positivity in the presence of TMZ (FIG. 2b). The observed infectivity lag was likely due to induction of apoptosis in a certain percentage of cells with TMZ treatment. Surviving cells were still susceptible to infection with RRV-GFP and able to produce more RRV-GFP virus for further infection and spread within the culture dish. […] Rather the data is consistent with the conclusion that slowing of tumor cell replication with the anticancer drug TMZ, slows the replication of the RRV because of the inhibition of cancer cell replication and the requirement for cell replication for productive infection with RRV.

U-87MG = test: In vitro RRV-GFP spread (FACS); format: cell-based, human; conditions: up to 5 mgml^−1 TMZ added 24 h before RRV-GFP
Method: as §1, §5

8-MG-BA = test: In vitro RRV-GFP spread (FACS); format: cell-based, human; conditions: 1 and 2 mgml^−1 TMZ added 24 h before RRV-GFP, compared with no TMZ control
Method: as §1, §5

LN-229 = test: In vitro RRV-GFP spread (FACS); format: cell-based, human; conditions: 1 and 2 mgml^−1 TMZ added 24 h before RRV-GFP, compared with no TMZ control
Method: as §1, §5

[3] = system: U-87MG cells (naive and Toca 511-transduced); test: In vitro 5-FC sensitivity assay (XTT viability); format: cell-based, human
Method: as §3, §4

Cn1nnc2c(C(N)=O)ncn2c1=O [TMZ, Temozolomide]
effect of TMZ on vector spread [1]: did not inhibit vector spread
RRV-GFP infectivity with TMZ (Tu-2449; TMZ at 50 mgml^−1 or higher): reduced infectivity
RRV-GFP infectivity with TMZ (Tu-2449; TMZ up to 20 mgml^−1 added 24 h before RRV-GFP): delayed infectivity
effect of TMZ on 5-FC killing ([2]; Toca 511-transduced Tu-2449, TMZ 2 mgml^−1 and 5-FC titrating amounts concomitantly): did not inhibit 5-FC killing
sensitivity to TMZ (cell viability) ([2]; Tu-2449 (printed Tu-2249), increasing amounts of TMZ): relatively resistant
RRV-GFP infectivity with TMZ (LN-18): delayed infectivity
RRV-GFP infectivity with TMZ (U-87MG): delayed infectivity
RRV-GFP infectivity with TMZ (8-MG-BA): delayed infectivity
RRV-GFP infectivity with TMZ (LN-229): delayed infectivity
effect of TMZ on 5-FC killing ([3]; Toca 511-transduced U-87MG, TMZ 2 mgml^−1 and 5-FC titrating amounts concomitantly): did not inhibit 5-FC killing
sensitivity to TMZ (cell viability) ([3]; U-87MG, increasing amounts of TMZ): sensitive
